Measured values taken from PubChem BioAssay AID1347423 (Functional Genomics Laboratory (NCATS/FGL), 2020).
The whole screen tested about 52,000 sequences, of which about 210 (0.4%) were called active.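 Rule for the calls: active = gene whose silencing raises cell survival under the drug, median off-target-corrected z-score across its silencing RNAs 2 or more; inactive = the rest.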 The list shows a part of the results.

test: Resistance to Poly (ADP-Ribose) Polymerase inhibitor: Gene Identification via Genome-wide siRNA Screen; conditions: mouse BRCA2 R2336H ES cells, olaparib, CellTiter-Glo viability; stronger effect = higher value
Procedure, shortened: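 Mouse BRCA2 R2336H ES cells were reverse-transfected with siRNA (20 nM final), treated at 48 h with 500 nM olaparib, and read by CellTiter-Glo after 72 h. Scores: MAD-based z per siRNA, median per gene, seed off-target correction.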

Sequence | z-score
GGAGAUUCGGCAUUAAGACTT against 0610037H22Rik | inactive: 0.766
GGUGACAAAAAGUCAAAGATT against 4930429A22Rik | inactive: -0.547
GGAAUAUCCCAACAUCUGUTT against Upp1 | inactive: -0.754
GGAGAGCGAAGAAGACUGUTT against Psen2 | inactive: -0.814
GGCUUUGCACUCAGCGUACTT against Pps | inactive: 0.872
GGCUCUGUCAAGUUCAUCATT against Tgm2 | inactive: 0.753
GGAAUCAAACGGACAAACATT against Lmod1 | inactive: 0.766
GGAGGCUGUCUGUCUAAUATT against Trim39 | inactive: 0.471
GGAGACAGAAACUUAACCUTT against Gns | inactive: 0.148
GGAGAAGGAGAGCUUCAUCTT against Mphosph6 | inactive: -1.11
GGUGUUACAGAUGUACCGATT against AY078069 | inactive: 0.639
UGACGGUUCUAUUGAUUACTT against AI316807 | inactive: 1.54
CCCUGAAAAUUAUCGAGCGTT against Galntl4 | inactive: -0.317
GGAUGCUGAAGUGAAGGACTT against Myt1 | inactive: -1.01
GCCACUAUCUGGAUAAGGATT against Ftl1 | inactive: -1.63
GGUGAUUCAACUCACUUGUTT against Olfr1353 | inactive: -0.149
GGGCCAUUUCAUGUUAAUUTT against Nit2 | inactive: -0.825
GGAUCCCUGUAAUAUGGCATT against Spag8 | inactive: 0.403
AGGCGGUUUUUUGUCUAUGTT against Serpina1e | inactive: -0.9
GGAAGGAGGAAAAGUAGGUTT against Peli1 | inactive: 1.14
GGUGACAAGGACGAGAUAATT against Synpo2 | inactive: -1.76
GGGAAGCAAAUCUAUACCCTT against Tnfrsf11a | inactive: -1.08
CCUAUCAAAGAUCAAUAGCTT against 2610507B11Rik | inactive: -0.0669
GGACGGCAAGUCUUAUGUGTT against Rp1h | inactive: 0.423
CUGGAUGCAUUAACUUCUUTT against Olfr1219 | inactive: 0.72
GGCCAAGGUUGCUAUUAAATT against BC033915 | inactive: 1.07

Three entries from above, as labelled records:
GGAAGGAGGAAAAGUAGGUTT against Peli1
  z-score: inactive: 1.14
GGUGACAAGGACGAGAUAATT against Synpo2
  z-score: inactive: -1.76
GGGAAGCAAAUCUAUACCCTT against Tnfrsf11a
  z-score: inactive: -1.08

Next results.

Sequence | z-score
CCCACGUAAGAAAAAUAGCTT against G630039H03Rik | inactive: -0.237
GCAAUGUUCUCCGUAAACATT against Acas2 | inactive: 0.804
GCACUCAUUGCCAGGGUCATT against Pycard | inactive: -0.13
GGAGUUAAAUAAACACUGATT against Rnf151 | inactive: -0.0623
GGUGUUGGAUCAUGAUGUUTT against Nf2 | inactive: 0.291
GGCUUUCGAAGGCAGAAGATT against 4930486L24Rik | inactive: 0.152
GGCAGUAUCAAAGAAAUUGTT against Rps6ka3 | inactive: 0.767
GGUGUCUCCCUUUCUCCUUTT against Rpp14 | inactive: -1.03
GCCUGACAUCAGUACCUUUTT against 4632424B03Rik | inactive: -2.15
GGUUAUUUCGGGAGAUAAGTT against 4921532K09Rik | inactive: -1.89
GGUCUGUACUUUUCUAGUGTT against Olfr394 | inactive: 1.02
GCAUGAAUUCAAAUUGCCATT against Eltd1 | inactive: -0.201
GGACUUUAAAUGCAAUAUCTT against Trps1 | inactive: 1.05
CCUAUUGUGAGCUUAAUGCTT against Nrxn2 | inactive: 0.505
GGAGACCAAAAUUUCUUGGTT against Sox9 | inactive: 1.05
GGGUCUUUCUCCUUAGCCCTT against BC025600 | inactive: 0.0582
GGUUUUAGAGGAAAUCGUATT against Arl6ip4 | inactive: 2.23
CGACCUAAUCACUCAGCUUTT against Tubgcp2 | inactive: -1.76
GCUUGUCAAAUAAACCAAUTT against Vdr | inactive: -1.01
GGGAGACCAUUGAAGGCAUTT against Gm457 | inactive: 0.933
GGAAGGUAAAAUUGAGAUCTT against Trpv2 | inactive: 0.596
GCUAGAAAUGAUUUAUGUGTT against A630018P17Rik | inactive: 0.104
GGCCAAGUUCCUUUGCAUATT against 9030625A04Rik | inactive: -0.269
GGGUAAUUAUUGUUUUCUGTT against 1300018P11Rik | inactive: 0.755
GGACGGACAUUUAUGACCCTT against Cpsf3 | inactive: -0.072
GGAGAAAUUCGACUGAAAATT against Pcdhb13 | inactive: 1.72

Taken from above:
GCAUGAAUUCAAAUUGCCATT against Eltd1 – z-score: inactive: -0.201
GGUUUUAGAGGAAAUCGUATT against Arl6ip4 – z-score: inactive: 2.23

Continued.

Sequence | z-score
CAGGCCUGAACUUUUUAUUTT against Olfr533 | inactive: 1.63
GCUACCUGCGACAAGAAAUTT against Defb23 | inactive: 0.212
GGACUGAACUAACAGGAAGTT against A630024B12Rik | inactive: -2.76
GGGCCUUGUUUUAGGAAUUTT against Lap3 | inactive: -0.0978
GCAAAAGUGAUAUUUGCACTT against LOC213043 | inactive: 1.54
GCCCGCCUACUUUGAAGAATT against Slc17a7 | inactive: 0.22
GCUCAAUCUCUCUGAGACCTT against Vax1 | inactive: 0.858
GGUCUUCAACAACAUUAUCTT against C630004H02Rik | inactive: 0.314
GGCAGGGAGCUUCUAGACUTT against Kiss1 | inactive: 0.285
GGAGCUGACGUGCUACUUATT against Apeg1 | inactive: 0.219
GCACAGAGGUCAGUUAAAGTT against Siat8c | inactive: -0.712
CGAUUAAAAAGGGACAUAUTT against Grid1 | inactive: -1.64
GGUUCUCUGCCAGUUCUGUTT against Mid1 | inactive: -0.675
GGCAAAAAUUACCUGUUGATT against Alms1 | inactive: 0.211
GCAGGAGUUUAUCAGAGGATT against Prim2 | inactive: -1.79
GGGAAUUAACCCUAGUGCUTT against B4galt3 | inactive: -0.797
CCUUUUAGGGAAAUUUGCATT against Mcmdc1 | inactive: 0.0862
CGAAUGACUCGUUUGUUAATT against 1700072E05Rik | inactive: 0.836
GGAGAAGAAUAGGAAUGCATT against Anpep | inactive: 0.227
GGUGUUGAGAUCAUUCUGCTT against Ors16 | inactive: 0.0914
GGAUUUCAACAGACAGGUGTT against BC017133 | inactive: 1.64
GGCAAAAACUGCUGAUCUGTT against Tex9 | inactive: 0.443
GGAACCAAAGUCAAAGGAGTT against Fip1l1 | inactive: -2.85
GCGGUCUGUCCCUACUAAUTT against Dnajc4 | inactive: -0.859
CCCUGUAAGGUUGAUUGUGTT against Oog3 | inactive: -0.971
GCUGAUUAGCCAUGUAAUUTT against Cebpg | inactive: -1.53

Sequence | z-score
GGUAACUGAUUGCUUAGAUTT against 2410004J23Rik | inactive: -1.53
GGAAAAAGACUUCUAUCACTT against D730001G18Rik | inactive: 1.29
GGUGGAGAAGCAGAUGCUUTT against Nek2 | inactive: -0.475
GGGUAGGCAAAGUUUUCAATT against 1700029M20Rik | inactive: -0.896
GGGCAUUUUUGAGAUGGUUTT against Syngr2 | inactive: 0.851
GGAAUCAAUAAAUGUCUACTT against Cyb561 | inactive: 0.995
GGAACAAAGAUGUCAAACATT against Olfr466 | inactive: 0.798
GGUUCUUGGGCACCAUUAUTT against Olfr786 | inactive: -2.43
CCUUCCUAACCAAUGAUGATT against AW121567 | inactive: -0.166
GGAGGAAGUUGAACUAUUGTT against Brd3 | inactive: -2.24
CGAUUUCGCUGUUACUAAATT against Slc2a3 | inactive: 0.997
GCCGUUUGGUUUCGAACUUTT against Oact2 | inactive: -1.02
CCCAGGACGACGACUUUUUTT against 0710005I19Rik | inactive: 0.881
CCUAAAUCUAUGAUGAAGATT against Cct3 | inactive: -0.132
GCAGUCCUCGUCCUCAAAGTT against 1110056N09Rik | inactive: -0.502
UAUAAUACUUCCCUUGCUGTT against Sox15 | inactive: 0.11
GGAAGAUGUGGAAAAAGCGTT against Smarca2 | inactive: 1.39
CCUAGUAAUGUCCAUUGUGTT against 2310067E08Rik | inactive: 0.0763
GGAAGACACAUUUUUCCAUTT against Serpinb9e | inactive: -0.145
GGUCUAUGUACUCGCCAAATT against Ptpns1 | inactive: -0.633
GCGUAUAGGUGAUGUACAGTT against Smad3 | inactive: -0.697
CGCUAACUUCCAAGUGCCUTT against Tacstd2 | inactive: 1
CACUGCUGUAAUCCCUAUGTT against Olfr1002 | inactive: 0.747
GUGUUUCCUUGUUAAGAUUTT against Cno | inactive: -0.695
GGGUGCUUUUCUGAAAGUATT against Olfr1342 | inactive: -0.949
GGCCUUGUUUUUAAGUAAATT against Atp12a | inactive: -0.112

In another format: entries from further up
Sequence	z-score
GGGCAUUUUUGAGAUGGUUTT against Syngr2	inactive: 0.851
CCCAGGACGACGACUUUUUTT against 0710005I19Rik	inactive: 0.881
GGGUGCUUUUCUGAAAGUATT against Olfr1342	inactive: -0.949
